Assay results: article doi:10.1101/2021.10.31.466654
No constants are given. Whether binding was seen depends on the method and setting. Some results given as binding are weak or reduced against the parent protein; the word gives no strength.

The chains behind the UniProt entries cited, without tags or fusion partners. Where a name states a change or a piece, a line headed by the entry shows the natural chain unless it says otherwise. A line that says so, or that is headed by a name, gives the form on record, which may keep a tag or linker. Residues count along the entry.
WT GPI-anchored mouse CRT expressed on B16 (P14211, residues 18-416): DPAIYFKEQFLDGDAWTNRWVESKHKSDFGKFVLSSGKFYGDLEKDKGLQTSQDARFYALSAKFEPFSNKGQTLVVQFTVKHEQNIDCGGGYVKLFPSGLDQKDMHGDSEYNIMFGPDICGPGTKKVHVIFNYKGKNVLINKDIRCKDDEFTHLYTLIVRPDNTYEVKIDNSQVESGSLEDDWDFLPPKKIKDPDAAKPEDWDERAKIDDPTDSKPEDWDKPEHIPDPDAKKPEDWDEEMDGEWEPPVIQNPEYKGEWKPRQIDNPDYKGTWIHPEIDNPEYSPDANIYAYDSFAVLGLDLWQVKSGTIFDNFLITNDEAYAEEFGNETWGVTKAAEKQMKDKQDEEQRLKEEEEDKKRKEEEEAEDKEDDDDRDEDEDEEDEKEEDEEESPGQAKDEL
GPI-anchored mouse CRT D244A expressed on B16 (P14211, form named): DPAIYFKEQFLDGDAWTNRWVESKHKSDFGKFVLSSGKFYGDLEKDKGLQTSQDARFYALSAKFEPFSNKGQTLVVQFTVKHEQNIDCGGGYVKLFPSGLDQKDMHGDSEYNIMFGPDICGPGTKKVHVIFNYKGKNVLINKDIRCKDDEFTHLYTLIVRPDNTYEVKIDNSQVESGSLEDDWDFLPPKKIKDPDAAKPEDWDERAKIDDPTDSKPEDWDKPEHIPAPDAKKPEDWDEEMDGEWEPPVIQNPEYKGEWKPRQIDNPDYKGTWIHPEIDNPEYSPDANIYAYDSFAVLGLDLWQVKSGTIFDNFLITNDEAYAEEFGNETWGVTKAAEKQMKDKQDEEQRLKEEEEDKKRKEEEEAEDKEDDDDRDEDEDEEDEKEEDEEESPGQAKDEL
GPI-anchored mouse CRT D258A expressed on B16 (P14211, form named): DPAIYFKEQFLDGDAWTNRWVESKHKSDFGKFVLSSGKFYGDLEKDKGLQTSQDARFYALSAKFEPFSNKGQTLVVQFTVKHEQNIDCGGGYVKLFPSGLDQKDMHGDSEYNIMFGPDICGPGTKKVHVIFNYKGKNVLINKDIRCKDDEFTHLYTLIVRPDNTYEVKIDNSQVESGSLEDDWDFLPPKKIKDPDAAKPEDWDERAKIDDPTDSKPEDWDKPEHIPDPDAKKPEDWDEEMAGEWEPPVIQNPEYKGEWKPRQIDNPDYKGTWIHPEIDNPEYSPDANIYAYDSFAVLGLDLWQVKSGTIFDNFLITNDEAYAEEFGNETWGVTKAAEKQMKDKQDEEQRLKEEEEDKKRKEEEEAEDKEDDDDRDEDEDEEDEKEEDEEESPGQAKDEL
GPI-anchored mouse CRT D237A expressed on B16 (P14211, form named): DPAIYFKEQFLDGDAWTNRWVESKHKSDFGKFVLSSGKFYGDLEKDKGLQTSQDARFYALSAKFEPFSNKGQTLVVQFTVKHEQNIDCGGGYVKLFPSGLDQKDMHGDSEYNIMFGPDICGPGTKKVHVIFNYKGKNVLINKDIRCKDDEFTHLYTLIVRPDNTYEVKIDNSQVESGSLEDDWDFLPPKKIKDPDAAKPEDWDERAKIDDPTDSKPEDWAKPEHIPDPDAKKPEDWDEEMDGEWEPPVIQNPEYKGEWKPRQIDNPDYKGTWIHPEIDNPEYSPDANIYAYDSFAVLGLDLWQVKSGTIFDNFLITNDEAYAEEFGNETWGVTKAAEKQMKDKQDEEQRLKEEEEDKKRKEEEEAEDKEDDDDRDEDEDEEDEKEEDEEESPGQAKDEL
UniProt O43699, residues 27-347: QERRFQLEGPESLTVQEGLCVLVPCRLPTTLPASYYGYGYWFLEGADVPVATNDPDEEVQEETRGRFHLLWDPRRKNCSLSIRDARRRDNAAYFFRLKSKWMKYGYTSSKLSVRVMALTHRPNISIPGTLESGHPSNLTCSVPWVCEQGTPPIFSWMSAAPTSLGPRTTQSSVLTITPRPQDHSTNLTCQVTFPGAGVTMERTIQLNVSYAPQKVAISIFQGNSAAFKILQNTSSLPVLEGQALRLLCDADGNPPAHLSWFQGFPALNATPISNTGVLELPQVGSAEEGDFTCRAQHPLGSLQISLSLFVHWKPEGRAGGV
UniProt Q9NYZ4, residues 17-363: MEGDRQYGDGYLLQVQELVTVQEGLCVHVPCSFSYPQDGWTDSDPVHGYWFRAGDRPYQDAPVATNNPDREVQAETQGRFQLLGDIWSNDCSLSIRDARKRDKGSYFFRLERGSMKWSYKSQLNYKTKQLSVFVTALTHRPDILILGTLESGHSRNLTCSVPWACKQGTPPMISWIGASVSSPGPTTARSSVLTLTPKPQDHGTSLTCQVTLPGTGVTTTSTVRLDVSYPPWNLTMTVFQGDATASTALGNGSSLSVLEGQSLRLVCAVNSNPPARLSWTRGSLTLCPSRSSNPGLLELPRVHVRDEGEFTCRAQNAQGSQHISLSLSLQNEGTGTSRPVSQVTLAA

Columns and labels:
[1] = target: Alexa647-labeled NKp46-Fc (human) (UniProt O76036); experiment: MST
[2] = target: neuraminidase treated Alexa647-labeled NKp46-Fc (human) (UniProt O76036); experiment: MST
[3] = target: GPI-anchored mouse CRT D244A expressed on B16 (mouse) (UniProt P14211); experiment: flow cytometry on cells
[4] = target: WT GPI-anchored mouse CRT expressed on B16 (mouse) (UniProt P14211); experiment: flow cytometry on cells
[5] = target: GPI-anchored mouse CRT D258A expressed on B16 (mouse) (UniProt P14211); experiment: flow cytometry on cells
[6] = target: GPI-anchored mouse CRT D237A expressed on B16 (mouse) (UniProt P14211); experiment: flow cytometry on cells

Q: With Siglec6-His tag (from UniProt O43699) as the molecule, how does the binding [1] read?
A: binds

Q: For “His-tagged CRT (from UniProt P27797 18-417)”, which binding [2] is on record?
A: binds

Q: How did the binding [1] turn out when Siglec8-His tag (from UniProt Q9NYZ4) was run?
A: binds

B1: NCR1-Ig (Fc fusion, UniProt Q8C567)
chain: QRINTEKETLPKPIIWAKPSIMVTNGNSVNIWCQGAQSASEYQLYFEGSFFALERPKPSRSMNKVRFFISQMTSHTAGIYTCFYQSGELWSKSSNPLKLVVTGLYDTPNLWVYPRPEVTLGENVTFFCQLKTATSKFFLLKERGSNHIQNKYGNIQAEFPMGPVTRAHRGTYRCFGSYNDYAWSFPSEPVTLLITGGVENSSLAPTDPTSSLDYWEFDLSTNESGLQKDSAFWDHTTQN
Q: With B1 as the molecule, how does the binding [3] read?
A: binds

Q: What about the binding [4] of the same molecule?
A: binds

Q: What about the binding [5] of the same molecule?
A: no binding (tested: 50 μg/ml)

Q: And the binding [6]?
A: no binding (tested: 50 μg/ml)
